Assay results reported in patent US20090053196A1.
No constants are given. Whether binding was seen depends on the method and setting. In cells and extracts the contact can be indirect. Some binding calls cover weakened binding; strength is not graded here. Sequences can lack the tags named with a protein.

Assays:
[1] = target: T1, GST-UFD-2 (Caenorhabditis elegans) (UniProt Q09349); experiment: title of FIG. 1 (two-hybrid and GST pull-down)
T1 sequence (looked up): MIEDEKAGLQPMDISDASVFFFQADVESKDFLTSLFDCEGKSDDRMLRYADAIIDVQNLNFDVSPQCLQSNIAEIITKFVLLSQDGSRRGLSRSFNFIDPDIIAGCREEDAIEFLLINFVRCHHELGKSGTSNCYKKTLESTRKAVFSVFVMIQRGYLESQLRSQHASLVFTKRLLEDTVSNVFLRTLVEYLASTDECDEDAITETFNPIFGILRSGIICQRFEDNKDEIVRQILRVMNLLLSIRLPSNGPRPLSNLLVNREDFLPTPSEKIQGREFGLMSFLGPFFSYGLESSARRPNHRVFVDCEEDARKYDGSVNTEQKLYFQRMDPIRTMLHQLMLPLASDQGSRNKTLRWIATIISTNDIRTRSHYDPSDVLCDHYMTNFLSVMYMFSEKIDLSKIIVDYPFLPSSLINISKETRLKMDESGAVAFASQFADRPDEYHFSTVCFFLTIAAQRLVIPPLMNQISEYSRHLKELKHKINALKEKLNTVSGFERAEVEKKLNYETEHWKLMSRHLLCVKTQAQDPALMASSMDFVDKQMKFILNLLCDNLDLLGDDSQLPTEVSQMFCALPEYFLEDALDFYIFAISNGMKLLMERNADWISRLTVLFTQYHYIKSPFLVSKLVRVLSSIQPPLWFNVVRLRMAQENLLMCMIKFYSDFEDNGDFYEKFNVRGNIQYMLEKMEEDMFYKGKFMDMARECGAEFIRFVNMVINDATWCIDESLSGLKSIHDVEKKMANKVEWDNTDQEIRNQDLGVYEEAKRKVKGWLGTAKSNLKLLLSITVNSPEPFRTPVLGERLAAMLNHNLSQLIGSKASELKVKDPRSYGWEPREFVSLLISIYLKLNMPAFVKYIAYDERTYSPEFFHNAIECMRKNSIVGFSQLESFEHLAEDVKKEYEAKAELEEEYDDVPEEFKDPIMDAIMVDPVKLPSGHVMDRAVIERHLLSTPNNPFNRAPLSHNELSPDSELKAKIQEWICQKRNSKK

[2] = target: T1, GST-UFD-2 (Caenorhabditis elegans); experiment: GST pull-down on immobilized GST-UFD-2, Western blot with anti-myc
[3] = target: T1, GST-UFD-2 (Caenorhabditis elegans); experiment: GST pull-down, ^mycCHN-1 alone or together with UNC-45^FLAG
[4] = target: T1, GST-UFD-2 (Caenorhabditis elegans); experiment: GST pull-down, Western blot with anti-myc
[5] = target: T1, GST-UFD-2 (Caenorhabditis elegans); experiment: pull-down on immobilized UFD-2, SDS-PAGE

Measured: binding

B1: myc-tagged CHN-1 (^mycCHN-1) (enzyme, not shown: small tags and cut ends)
chain: MSSGAEQHNTNGKKCYMNKRYDDAVDHYSKAIKVNPLPKYYQNRAMCYFQLNNLKMTEEDCKRALELSPNEVKPLYFLGNVFLQSKKYSEAISCLSKALYHNAVITNAPDIENALKRARHQKYEEEESKRIVQDVEFHTYLESLIEKDRQENSENPEELQRADMAKKRLTELTLATQEKRQNREVPEMLCGKITLELMKEPVIVPSGITYDREEIVQHLRRIGHFDPVTRKPLTENEIIPNYALKEVIEKFLDDNPWAKYEPGGMV
binds: [1] | [2] | [3] | [4] | [5]
